Assay results reported in patent US20260055096A1, “AZOLE PESTICIDAL COMPOUNDS” (BASF SE, priority 2022, published 2026).
Some entries share one result that the patent states for a list of compounds.

Legend:
Type in all cases: in vivo
[1] = tested on: yellow fever mosquito (Aedes aegypti); conditions: 800 ppm; larval mortality after 2 days
Description: For evaluating control of yellow fever mosquito (Aedes aegypti) the test unit consisted of 96-well-microtiter plates containing 200 μl of tap water per well and 5-15 freshly hatched A. aegypti larvae.
The active compounds or mixtures were formulated using a solution containing 75% (v/v) water and 25% (v/v) DMSO. Different concentrations of formulated compounds or mixtures were sprayed onto the insect diet at 2.5 μl, using a custom-built micro atomizer, at two replications.
For experimental mixtures in these tests identical volumes of both mixing partners at the desired concentrations respectively, were mixed together.
After application, microtiter plates were incubated at 28 #1° C., 80 #5% RH for 2 days. Larval mortality was then visually assessed.

[2] = tested on: boll weevil (Anthonomus grandis); test: Example B.3: Action on boll weevil (Anthonomus grandis), egg and larval mortality on insect diet; conditions: 800 ppm; egg and larval mortality after 5 days
Description: For evaluating control of boll weevil (Anthonomus grandis) the test unit consisted of 96-well-microtiter plates containing an insect diet and 5-10 A. grandis eggs.
The compounds were formulated using a solution containing 75% (v/v) water and 25% (v/v) DMSO. Different concentrations of formulated compounds were sprayed onto the insect diet at […], using a custom-built micro atomizer, at two replications.
After application, microtiter plates were incubated at about 25±1C and about 75±5% relative humidity for 5 days. Egg and larval mortality were then visually assessed.

[3] = tested on: tobacco budworm (Heliothis virescens); test: Example B.5: Action on tobacco budworm (Heliothis virescens), egg and larval mortality on insect diet; conditions: 800 ppm; egg and larval mortality after 5 days
Description: For evaluating control of tobacco budworm (Heliothis virescens) the test unit consisted of 96-well-microtiter plates containing an insect diet and 15-25 H. virescens eggs.
The compounds were formulated using a solution containing 75% v/v water and 25% v/v DMSO. Different concentrations of formulated compounds were sprayed onto the insect diet at 10 μl, using a custom-built micro atomizer, at two replications.
After application, microtiter plates were incubated at about 28±1C and about 80±5% relative humidity for 5 days. Egg and larval mortality were then visually assessed.

[4] = tested on: Southern armyworm (Spodoptera eridania), 2nd instar larvae; test: Example B.7: Action on southern armyworm (Spodoptera eridania), 2nd instar larvae on sprayed lima bean plants; conditions: 300 ppm; 4 days after treatment
Description: The active compounds were formulated by a Tecan liquid handler in 100% cyclohexanone as a 10,000-ppm solution supplied in tubes. The 10,000-ppm solution was serially diluted in 100% cyclohexanone to make interim solutions. These served as stock solutions for which final dilutions were made by the Tecan in 50% acetone:50% water (v/v) into 10 or 20 ml glass vials. A nonionic surfactant (Kinetic®) was included in the solution at a volume of 0.01% (v/v). The vials were then inserted into an automated electrostatic sprayer equipped with an atomizing nozzle for application to plants/insects.
Lima bean plants (variety Sieva) were grown 2 plants to a pot and selected for treatment at the 1st true leaf stage. Test solutions were sprayed onto the foliage by an automated electrostatic plant sprayer equipped with an atomizing spray nozzle. The plants were dried in the sprayer fume hood and then removed from the sprayer. Each pot was placed into perforated plastic bags with a zip closure. About 10 to 11 armyworm larvae were placed into the bag and the bags zipped closed. Test plants were maintained in a growth room at about 25° C. and about 20-40% relative humidity for 4 days, avoiding direct exposure to fluorescent light (24-hour photoperiod) to prevent trapping of heat inside the bags. Mortality and reduced feeding were assessed 4 days after treatment, compared to untreated control plants.

[5] = tested on: Orchid thrips (Dichromothrips corbetti); test: Example B.2: Action on orchid thrips (Dichromothrips corbetti), floral-immersion technique; conditions: 300 ppm; 72 hours after treatment
Description: Dichromothrips corbetti adults used for bioassay were obtained from a colony maintained continuously under laboratory conditions. For testing purposes, the test compound is diluted in a 1:1 mixture of acetone:water (vol:vol), plus Kinetic® HV at a rate of 0.01% v/v.
Thrips potency of each compound was evaluated by using a floral-immersion technique. All petals of individual, intact orchid flowers were dipped into treatment solution and allowed to dryin Petri dishes. Treated petals were placed into individual re-sealable plastic along with about 20 adult thrips. All test arenas were held under continuous light and a temperature of about 28° C. for duration of the assay. After 3 days, the numbers of live thrips were counted on each petal. The percent mortality was recorded 72 hours after treatment.

[6] = tested on: Diamond back moth (Plutella xylostella); test: Example B.8: Action on diamond back moth (Plutella xylostella), egg and larval mortality on insect diet in microtiter plates; conditions: 800 ppm; egg and larval mortality after 5 days
Description: For evaluating control of diamond back moth (Plutella xylostella) the test unit consisted of 96-well-microtiter plates containing an insect diet and 15-25 P. xylostella eggs. The compounds or mixtures were formulated using a solution containing 75% water and 25% DMSO. Different concentrations of formulated compounds or mixtures were sprayed onto the insect diet at 5 μl, using a custom-built micro atomizer, at two replications. For experimental mixtures in these tests identical volumes of both mixing partners at the desired concentrations respectively, were mixed together. After application, microtiter plates were incubated at 28±1° C., 80±5% RH for 5 days. Egg and larval mortality was then visually assessed.

| Compound | mortality in comparison with untreated controls [1] | mortality in comparison with untreated controls [2] | mortality in comparison with untreated controls [3] | mortality in comparison with untreated controls [4] | mortality in comparison with untreated controls [5] | mortality in comparison with untreated controls [6] |
| --- | --- | --- | --- | --- | --- | --- |
| Cc1c(-c2ccc(NC(=O)/N=C3\SCC(=O)N3c3cc(C#N)ccc3C(C)C)cc2)nn(C)c1N(C)C(=O)c1ccc(OC(F)(F)F)cc1 [Example C-29] | at least 50% | at least 75% | at least 75% | at least 75% | – | – |
| CC(=O)OCS/C(=N/c1cc(N(C)C)ccc1C(C)C)NC(=O)Nc1ccc(-c2nn(C)c(NC(=O)c3ccc(OC(F)(F)F)cc3)c2C)cc1 [Example C-33] | at least 50% | at least 75% | at least 75% | at least 75% | – | – |
| Cc1c(-c2ccc(NC(=O)NC(=S)Nc3cc(N(C)C)ccc3C(C)C)cc2)nn(C)c1NC(=O)c1ccc(OC(F)(F)F)cc1 [Example C-37] | at least 50% | at least 75% | at least 75% | at least 75% | at least 75% | – |
| Cc1c(-c2ccc(NC(=O)NC(=S)Nc3cc(C4CC4)ccc3C(C)C)cc2)nn(C)c1NC(=O)c1ccc(OC(F)(F)F)cc1 [Example C-38] | at least 50% | at least 75% | at least 75% | at least 75% | at least 75% | – |
| COc1cc(-c2nn(C)c(NC(=O)c3ccc(OC(F)(F)F)cc3)c2C)ccc1NC(=O)/N=C1\SCC(=O)N1c1cc(C)ccc1C(C)C [Example C-58] | at least 50% | at least 75% | at least 75% | at least 75% | – | at least 75% |
| Cc1ccc(C(C)C)c(N2C(=O)CS/C2=N\C(=O)Nc2ccc(-c3nn(C)c(NC(=O)c4ccc(OC(F)(F)F)cc4)c3C#N)c(Cl)c2)c1 [Example C-64] | at least 50% | at least 75% | at least 75% | – | – | at least 75% |
| Cc1ccc(C(C)C)c(N2C(=O)CSC2=NC(=O)Nc2ccc(-c3nn(C)c(N(C)C(=O)c4ccc(C#N)cc4)c3C)cc2Cl)c1 [Example C-69] | at least 50% | at least 75% | at least 75% | at least 75% | – | at least 75% |
| Cc1ccc(C(C)C)c(N2C(=O)CSC2=NC(=O)Nc2c(C)cc(-c3nn(C)c(NC(=O)c4ccc(OC(F)(F)F)cc4)c3C)cc2Cl)c1 [Example C-70] | at least 50% | at least 75% | at least 75% | at least 75% | – | at least 75% |
| Cc1ccc(C(C)C)c(N2C(=O)CSC2=NC(=O)Nc2c(C)cc(-c3nn(C)c(N(C)C(=O)c4ccc(OC(F)(F)F)cc4)c3C)cc2Cl)c1 [Example C-73] | at least 50% | at least 75% | at least 75% | at least 75% | – | at least 75% |
| Cc1ccc(C(C)C)c(N2C(=O)CSC2=NC(=O)Nc2ccc(-c3nn(C)c(NC(=O)c4ccc(N(C)C)cc4)c3C)cc2Cl)c1 [Example C-74] | at least 50% | at least 75% | at least 75% | at least 75% | – | at least 75% |
| COc1cc(-c2nc(NC(=O)c3ccc(OC(F)(F)F)cc3)n(C)n2)ccc1NC(=O)/N=C1\SCC(=O)N1c1cc(C)ccc1C(C)C [Example C-79] | at least 50% | at least 75% | at least 75% | – | at least 75% | – |
| Cc1ccc(C(C)C)c(N2C(=O)CSC2=NC(=O)Nc2ccc(-c3nn(C)c(NC(=O)c4ccc(F)cc4)c3C)cc2Cl)c1 [Example C-89] | at least 50% | at least 75% | at least 75% | at least 75% | – | – |
| Cc1ccc(C(C)C)c(N2C(=O)CS/C2=N\C(=O)Nc2ccc(-c3nc(NC(=O)c4ccc(C(Cl)Cl)cc4)n(C)n3)cc2Cl)c1 [Example C-114] | at least 50% | at least 75% | at least 75% | – | – | at least 75% |
| CC(C)c1ccc(Cl)cc1N1C(=O)CSC1=NC(=O)Nc1ccc(-c2nc(NC(=O)c3ccc(OC(F)(F)F)cc3)n(C)n2)cc1 [Example C-117] | – | – | at least 75% | at least 75% | – | at least 75% |
| Cc1ccc(C(C)C)c(N2CCS/C2=N\C(=O)Nc2ccc(-c3nn(C)c(NC(=O)c4ccc(OC(F)(F)F)cc4)c3C)cc2Cl)c1 [Example C-120] | at least 50% | at least 75% | at least 75% | at least 75% | at least 75% | – |
| Cc1ccc(C(C)C)c(N2CCS/C2=N\C(=O)Nc2ccc(-c3nn(C)c(NC(=O)c4ccc(OC(F)(F)F)cc4)c3C)cc2C)c1 [Example C-121] | at least 50% | at least 75% | at least 75% | at least 75% | at least 75% | – |
| Cc1ccc(C(C)C)c(N2CCSC2=NC(=O)Nc2ccc(-c3nc(NC(=O)c4ccc(OC(F)(F)F)cc4)n(C)n3)cc2Cl)c1 [Example C-123] | at least 50% | – | at least 75% | at least 75% | – | at least 75% |
| Cc1ccc(C(C)C)c(N2C(=O)CSC2=NC(=O)Nc2ccc(-c3nn(C4CC4)c(NC(=O)c4ccc(OC(F)(F)F)cc4)c3C)cc2Br)c1 [Example C-125] | – | – | – | at least 75% | – | – |
